Data taken from paper PMC8906119.
These are yes or no findings as the source states them, for the method shown. Binding seen in cells or lysates may run through a third protein. Some binding calls cover weakened binding; strength is not graded here.

Molecular target: WW domain-containing E3 ubiquitin protein ligase1 (WWP1) (human (endogenous in HuCCT1, HCCC-9810, RBE)) (UniProt Q9H0M0)
Experiment: co-IP; lysates of HuCCT1, HCCC-9810 and RBE cells in Pierce IP Lysis Buffer, specific antibodies overnight at 4 °C, Protein A/G Magnetic Beads, western blotting

B1: Nedd4 family interacting protein1 (NDFIP1) (protein, UniProt Q9BT67 1-221)
chain: MALALAALAAVEPACGSRYQQLQNEEESGEPEQAAGDAPPPYSSISAESAAYFDYKDESGFPKPPSYNVATTLPSYDEAERTKAEATIPLVPGRDEDFVGRDDFDDADQLRIGNDGIFMLTFFMAFLFNWIGFFLSFCLTTSAAGRYGAISGFGLSLIKWILIVRFSTYFPGYFDGQYWLWWVFLVLGFLLFLRGFINYAKVRKMPETFSNLPRTRVLFIY
binding: binds
